These are yes or no findings as the source states them, for the method shown.
Tests used:
[1] = target: human SHOC1^570-1111 (human) (UniProt Q5VXU9); test: SEC; Superdex 200 gel filtration, calibrated with molecular weight markers; buffer Tris-HCl 7.4, NaCl 250 mM, glycerol 10%; both purified
[2] = target: human SHOC1^570-1111 (human) (UniProt Q5VXU9); test: cross-linking; 8 μM SHOC1 incubated with suberic acid bis(N-hydroxysuccinimide ester) (DSS) for 10 min at room temperature; 4-12% gradient SDS-PAGE, Coomassie stain; both purified

Amino acid sequences for entries named in this document (tags omitted). Residues count along the entry.
UniProt Q5VXU9, residues 570-1111: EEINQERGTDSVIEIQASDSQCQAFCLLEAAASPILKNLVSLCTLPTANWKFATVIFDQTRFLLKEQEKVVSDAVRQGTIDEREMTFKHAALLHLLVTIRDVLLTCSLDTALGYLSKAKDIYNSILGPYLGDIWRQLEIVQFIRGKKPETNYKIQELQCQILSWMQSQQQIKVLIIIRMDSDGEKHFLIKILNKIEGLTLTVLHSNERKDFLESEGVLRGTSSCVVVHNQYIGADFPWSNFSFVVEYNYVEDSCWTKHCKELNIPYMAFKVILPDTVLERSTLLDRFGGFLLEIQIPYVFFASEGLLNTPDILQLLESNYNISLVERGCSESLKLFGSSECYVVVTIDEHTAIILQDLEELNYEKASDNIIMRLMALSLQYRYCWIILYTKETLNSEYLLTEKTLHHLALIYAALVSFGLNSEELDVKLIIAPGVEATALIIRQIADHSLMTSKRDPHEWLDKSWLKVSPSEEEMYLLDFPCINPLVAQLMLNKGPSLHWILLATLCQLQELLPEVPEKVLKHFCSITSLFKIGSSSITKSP

human SHOC1^570-1111 (from UniProt Q5VXU9 570-1111) (domain or fragment)
binding [1]: no binding
binding [2]: no binding (tested: 8 μM)
